Reference: article doi:10.1101/2022.05.30.494040
Results are given in words; binding and its absence hold for the method and conditions named. Some binding calls cover weakened binding; strength is not graded here.

Amino acid sequences for entries named in this document (tags omitted). Residues count along the entry.
UniProt Q12846, whole entry: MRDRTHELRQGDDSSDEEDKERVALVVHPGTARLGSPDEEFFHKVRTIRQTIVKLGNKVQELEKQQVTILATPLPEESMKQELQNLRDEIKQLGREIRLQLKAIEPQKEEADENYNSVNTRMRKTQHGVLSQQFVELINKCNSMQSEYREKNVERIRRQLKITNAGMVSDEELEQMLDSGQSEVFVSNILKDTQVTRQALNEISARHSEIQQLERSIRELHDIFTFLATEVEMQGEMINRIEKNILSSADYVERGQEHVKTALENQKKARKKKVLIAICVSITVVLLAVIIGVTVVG
UniProt P32856, whole entry: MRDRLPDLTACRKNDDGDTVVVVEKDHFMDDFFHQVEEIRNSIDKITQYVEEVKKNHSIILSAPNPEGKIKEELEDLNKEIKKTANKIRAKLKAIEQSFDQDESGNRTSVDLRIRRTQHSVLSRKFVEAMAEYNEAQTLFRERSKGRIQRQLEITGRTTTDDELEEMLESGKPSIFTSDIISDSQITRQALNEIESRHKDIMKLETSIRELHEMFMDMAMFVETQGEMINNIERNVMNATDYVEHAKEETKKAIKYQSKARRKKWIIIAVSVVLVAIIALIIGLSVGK
UniProt Q8R570, 115-412: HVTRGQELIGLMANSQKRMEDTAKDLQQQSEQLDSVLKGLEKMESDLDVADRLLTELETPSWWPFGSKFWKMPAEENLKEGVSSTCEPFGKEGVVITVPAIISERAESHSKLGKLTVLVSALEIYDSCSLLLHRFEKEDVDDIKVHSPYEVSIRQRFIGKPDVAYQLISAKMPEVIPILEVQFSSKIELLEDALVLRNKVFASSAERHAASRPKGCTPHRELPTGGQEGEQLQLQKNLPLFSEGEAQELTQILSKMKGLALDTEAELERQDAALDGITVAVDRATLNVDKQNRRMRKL

Experiments:
Experiment in all cases: co-reconstitution into liposomes with flotation on a density gradient
full-length Stx4 = full-length Stx4 (UniProt Q12846)
full-length Stx2 (human) = full-length Stx2 (human) (UniProt P32856)
full-length Stx3 = molecular target: T1, full-length Stx3 (UniProt Q13277)
T1 sequence: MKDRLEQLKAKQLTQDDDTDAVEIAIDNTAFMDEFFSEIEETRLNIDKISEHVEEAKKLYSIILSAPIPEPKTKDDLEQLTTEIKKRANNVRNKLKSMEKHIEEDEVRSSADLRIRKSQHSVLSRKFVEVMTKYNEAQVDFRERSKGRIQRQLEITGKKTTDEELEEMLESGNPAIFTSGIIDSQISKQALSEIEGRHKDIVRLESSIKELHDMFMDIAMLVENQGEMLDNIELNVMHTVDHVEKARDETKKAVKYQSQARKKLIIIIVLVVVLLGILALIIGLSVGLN

Measured: binding

SNAP47_(115-412) (from UniProt Q8R570 115-412) (domain or fragment)
binds: full-length Stx4 | full-length Stx2 (human) | full-length Stx3

B1: full-length SNAP23 (protein, UniProt O00161 1-211)
chain: MDNLSSEEIQQRAHQITDESLESTRRILGLAIESQDAGIKTITMLDEQKEQLNRIEEGLDQINKDMRETEKTLTELNKCCGLCVCPCNRTKNFESGKAYKTTWGDGGENSPCNVVSKQPGPVTNGQLQQPTTGAASGGYIKRITNDAREDEMEENLTQVGSILGNLKDMALNIGNEIDAQNPQIKRITDKADTNRDRIDIANARAKKLIDS
binds: full-length Stx4 | full-length Stx2 (human) | full-length Stx3
